Results taken from paper PMC10175487.
No constants are given. Whether binding was seen depends on the method and setting. In cells and extracts the contact can be indirect. Some entries that bind do so weakly or less than the wild type.

Target: RIPK3 (mouse (endogenous in BMDMs)), Q9QZL0
Assay: co-IP; necrosome: immunoprecipitation of endogenous RIPK3 (anti-RIPK3, protein A/G agarose) from BMDMs treated with TNFα/SM-164/zVAD, vehicle or UDP-GlcA; 0.5% NP-40 lysis buffer, 4 °C; immunoblotting
Details: remark: other sources report otherwise

B1: RIPK1, Q60855 1-656 (protein)
chain: MQPDMSLDNIKMASSDLLEKTDLDSGGFGKVSLCYHRSHGFVILKKVYTGPNRAEYNEVLLEEGKMMHRLRHSRVVKLLGIIIEEGNYSLVMEYMEKGNLMHVLKTQIDVPLSLKGRIIVEAIEGMCYLHDKGVIHKDLKPENILVDRDFHIKIADLGVASFKTWSKLTKEKDNKQKEVSSTTKKNNGGTLYYMAPEHLNDINAKPTEKSDVYSFGIVLWAIFAKKEPYENVICTEQFVICIKSGNRPNVEEILEYCPREIISLMERCWQAIPEDRPTFLGIEEEFRPFYLSHFEEYVEEDVASLKKEYPDQSPVLQRMFSLQHDCVPLPPSRSNSEQPGSLHSSQGLQMGPVEESWFSSSPEYPQDENDRSVQAKLQEEASYHAFGIFAEKQTKPQPRQNEAYNREEERKRRVSHDPFAQQRARENIKSAGARGHSDPSTTSRGIAVQQLSWPATQTVWNNGLYNQHGFGTTGTGVWYPPNLSQMYSTYKTPVPETNIPGSTPTMPYFSGPVADDLIKYTIFNSSGIQIGNHNYMDVGLNSQPPNNTCKEESTSRHQAIFDNTTSLTDEHLNPIRENLGRQWKNCARKLGFTESQIDEIDHDYERDGLKEKVYQMLQKWLMREGTKGATVGKLAQALHQCCRIDLLNHLIRASQS
binding: binds
